In publication PMC6771250:
Results are given in words; binding and its absence hold for the method and conditions named. Binding seen in cells or lysates may run through a third protein. Some binding calls cover weakened binding; strength is not graded here. For some of these results: Where a sequence is shown, tags or fusion partners need not be part of it.

Amino acid sequences for entries named in this document (tags omitted).
UniProt P62491: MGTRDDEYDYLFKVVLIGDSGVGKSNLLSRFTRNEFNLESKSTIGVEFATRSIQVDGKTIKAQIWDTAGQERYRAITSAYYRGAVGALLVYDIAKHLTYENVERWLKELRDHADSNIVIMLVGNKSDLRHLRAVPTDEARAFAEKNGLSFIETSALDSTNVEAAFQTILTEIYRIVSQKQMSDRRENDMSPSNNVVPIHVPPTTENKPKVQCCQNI

Columns and labels:
[1] = target: T1, B Cell Receptor Associated Protein 31 (BCAP31), endogenous (human (endogenous in MDA-MB-231 and MDA-MB-157)) (UniProt P51572); assay: co-IP; endogenous proteins in lysates of MDA-MB-231 or MDA-MB-157 cells; same lysis buffer, 1 ug antibody or control IgG at 4 C overnight, protein-G beads; western blot; for the EGFR IP of Figure 6I control or BCAP31-knockdown MDA-MB-231 cells
T1 sequence: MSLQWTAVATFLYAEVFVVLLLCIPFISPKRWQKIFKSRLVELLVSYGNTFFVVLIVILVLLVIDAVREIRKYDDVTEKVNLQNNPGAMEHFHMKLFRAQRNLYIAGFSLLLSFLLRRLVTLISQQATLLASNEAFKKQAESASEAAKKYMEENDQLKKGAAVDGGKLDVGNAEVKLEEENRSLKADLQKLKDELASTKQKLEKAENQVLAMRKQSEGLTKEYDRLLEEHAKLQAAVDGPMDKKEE

[2] = target: T2, B Cell Receptor Associated Protein 31 with C-terminal FLAG tag (BCAP31-FLAG) (UniProt P51572); assay: co-IP; transfected COS-7 cells; lysis in 50 mmol/L Tris pH 7.5, 150 mmol/L NaCl, 1% Nonidet P-40, 1 mmol/L EDTA, 0.25% deoxycholate; 1 ug antibody or control IgG at 4 C overnight, protein-G beads; western blot
T2 sequence: T1 sequence

RAB11-HA = RAB11-HA (UniProt P62491); assay: as above
[3] = target: RAB11, endogenous (human (endogenous in MDA-MB-231)) (UniProt P62491); assay: co-IP; endogenous proteins in lysates of MDA-MB-231 or MDA-MB-157 cells; same lysis buffer, 1 ug antibody or control IgG at 4 C overnight, protein-G beads; western blot; for the EGFR IP of Figure 6I control or BCAP31-knockdown MDA-MB-231 cells

Molecule: epidermal growth factor receptor (EGFR), endogenous (from UniProt P00533 25-1210)
- binding [1]: binds

Molecule: epidermal growth factor receptor (EGFR), exogenous (from UniProt P00533 25-1210)
- binding [2]: binds

B1: B Cell Receptor Associated Protein 31 with C-terminal FLAG tag (BCAP31-FLAG) (protein, UniProt P51572-1 1-246)
chain: T1 sequence
- binding (RAB11-HA): binds

B2: B Cell Receptor Associated Protein 31 (BCAP31), endogenous (protein, UniProt P51572 1-246)
chain: T1 sequence
- binding [3]: binds
